Reference: article PMC11847324, “A communication hub for phosphoregulation of kinetochore-microtubule attachment” (Current biology : CB, 2024)
No constants are given. Whether binding was seen depends on the method and setting. A result given as binding can be weak or reduced; the word gives no strength. Tags and fused reporters may be left off the sequences shown. Blank lines part the entries; values can stand above or below the binder they belong to.

Biological target: Ndc80c^dwarf with a 6-His affinity tag on the N-terminus of Ndc80 (S. cerevisiae)
Test: pull-down; Ndc80c^dwarf (6-His on the N-terminus of Ndc80) immobilised to saturation on Ni-NTA agarose, incubated 30 min with the GST fusion of an Mps1 segment eluted from glutathione agarose; 20 mM HEPES pH 7.2, 150 mM NaCl, 2 mM imidazole, 2 mM TCEP; eluted with 500 mM imidazole, SDS-PAGE; both purified

binding: no binding
B1: GST fusion of Mps1 354–424 (domain or fragment)
chain: GSGGSGGSGGSGGSSEKREVLRNISINANHADNLLQQENKRLKRSLDDAITNENINSKNLEVFYHRPAPKPPVTKKVEIVEPAKS

binding: no binding
B2: GST fusion of Mps1 217–267 (domain or fragment)
chain: GSGGSGGSGGSGGSDYDSIDFGDLNPIQYIKKHNLPTSDLPLISQIYFDKQREENRQAALRKHSS

binding: binds
Binder: GSGGSGGSGGSGGSERRSKRFLISNRTTKLGPAKR (domain or fragment) [GST fusion of Mps1 151–171]

binding: no binding
Binder: GSGGSGGSGGSGGSSDDEEFTTPPKLSNFGSALLSHTEKTS (domain or fragment) [GST fusion of Mps1 22–46]
